Measurements reported in article PMC7819943, “Rice protein-binding microarrays: a tool to detect cis-acting elements near promoter regions in rice”.
The list shows a part of the results.

By UniProt entry, the sequences of proteins in these tests, tags left out.
UniProt Q0JBA9, entry or part of it: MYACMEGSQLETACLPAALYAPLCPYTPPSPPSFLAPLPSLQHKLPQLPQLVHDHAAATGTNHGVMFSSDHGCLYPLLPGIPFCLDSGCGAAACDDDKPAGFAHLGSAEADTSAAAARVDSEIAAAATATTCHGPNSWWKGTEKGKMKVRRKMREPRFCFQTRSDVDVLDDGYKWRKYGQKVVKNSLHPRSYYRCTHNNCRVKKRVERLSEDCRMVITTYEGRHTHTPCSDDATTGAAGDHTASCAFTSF

What follows are sequences tested against OsWRKY34 (Oryza sativa, UniProt Q0JBA9 1-250) (assay: protein-binding microarray (RPBM); PBS, 2% BSA, 51.3 ng/ul salmon testes DNA, 50 uM zinc acetate, 200 nM TF, 25 C, 1 h; high values mean tight binding). Settings: protein: recombinant; tags: N-terminal polyhistidine and DsRed monomer fusion (pET32a); label: CyDye5-dUTP incorporated in the synthesized complementary strand; 3' TTTTT single-stranded linker to array surface; dsDNA, one strand shown.
Procedure, shortened: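 Binding signal is reported as fluorescence intensity per feature (arbitrary units) from an Axon 4000B scanner. Incubation used 200 nM of each Ni–NTA-purified, N-terminally polyhistidine- and DsRed-fused transcription factor from E. coli BL21-CodonPlus on a double-stranded custom Agilent array for 1 h at 25 °C, with 50 µM zinc acetate in the buffer, followed by washing.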

Sequence	binding signal
TGCTGCACCCTCAACGTTCCGGTAATCCTATTGGCGCACACGGAGTCACCTAGTGCAG	8470 fluorescence intensity (a.u.)
GGTTTCTTTTCTCCTTTGACCTTTTCGATTGAGAGAGCTCCGGAGTCACCTAGTGCAG	9040 fluorescence intensity (a.u.)
GCGGCGTGTGTGGTTTGGTTTGGGATAAAGCGGCCGTGGCCGGAGTCACCTAGTGCAG	8810 fluorescence intensity (a.u.)
GACTCGGTCTTCATCTGACGTAACGCTTACGTGGCAATTCCGGAGTCACCTAGTGCAG	8820 fluorescence intensity (a.u.)
CTATGGCGGTCACCTTGTATGGCCTTCCAAGGTAGTATTTCGGAGTCACCTAGTGCAG	8270 fluorescence intensity (a.u.)
AACAGTGAGCATTGTGCGTGCGAAAACCTGACGTCTTCTGCGGAGTCACCTAGTGCAG	8410 fluorescence intensity (a.u.)
GTATTACGTTGTCATTCCTTTTTGCCATTGGTTTTCATCGCGGAGTCACCTAGTGCAG	8660 fluorescence intensity (a.u.)
TTGACTTTTTAAAATATGTTTGACCGTTCGTCTTATTCAACGGAGTCACCTAGTGCAG	8040 fluorescence intensity (a.u.)
ACTCGCTCGCTCGCTCGCCTCGCGCACCCGCACCGCCCGCCGGAGTCACCTAGTGCAG	9260 fluorescence intensity (a.u.)
GGAATTAGGGTTGGGTCCGTGTCGGGCTCGGGACTCCTGCCGGAGTCACCTAGTGCAG	8280 fluorescence intensity (a.u.)
TCCGGTCTCTACATTCAACTGAATATATGCAACCTTAAAACGGAGTCACCTAGTGCAG	8680 fluorescence intensity (a.u.)
TTTATTCACATACTACTTTTCGTTTGCAAATATGCCATTTCGGAGTCACCTAGTGCAG	10800 fluorescence intensity (a.u.)
AACTTCTAACTTTTCCATCACATCATTTCAATTTCAACCACGGAGTCACCTAGTGCAG	8650 fluorescence intensity (a.u.)
ATTGCTTGTTCTCCTTGTCTGATGAACAAAGTAATTGCTACGGAGTCACCTAGTGCAG	9380 fluorescence intensity (a.u.)
GTCTGCTTTAAGTATATACTTTCTCCGTTTCACAATGTAACGGAGTCACCTAGTGCAG	10400 fluorescence intensity (a.u.)
ACAAAACAGAGTCAAAATCACCGAGGGATCAGTTTGCACTCGGAGTCACCTAGTGCAG	8230 fluorescence intensity (a.u.)
AACTCTATTTGTCCTTTCTTATCCGGAACTCGTTCTATATCGGAGTCACCTAGTGCAG	8660 fluorescence intensity (a.u.)
TGGATTAGTAGCTTTTTCTTTTCTTTATTTTTTTAAAAAACGGAGTCACCTAGTGCAG	9710 fluorescence intensity (a.u.)
TTTGTGCGGCTGCTTTTCCATTTCCGCCCACATCGCCTTCCGGAGTCACCTAGTGCAG	8140 fluorescence intensity (a.u.)
ATCTTACCCTTTTTTCCCTGCATTTCAGCATTGCAGCACTCGGAGTCACCTAGTGCAG	13200 fluorescence intensity (a.u.)
ATCGCTCTCTTTTTCTCGGTTGTTTTGGATTTGTAGCATCCGGAGTCACCTAGTGCAG	11400 fluorescence intensity (a.u.)
CGCGCGCCCTCGCCACTCGCGAGCTTCTACTGCTGTCTCTCGGAGTCACCTAGTGCAG	11400 fluorescence intensity (a.u.)
CGTTATTATTGTCTTTCGCATGATCGTATCCGCACGTATGCGGAGTCACCTAGTGCAG	10900 fluorescence intensity (a.u.)

Single values from the entries so far:
In binding signal, AACTCTATTTGTCCTTTCTTATCCGGAACTCGTTCTATATCGGAGTCACCTAGTGCAG is listed with 8660 fluorescence intensity (a.u.)
In binding signal, GTATTACGTTGTCATTCCTTTTTGCCATTGGTTTTCATCGCGGAGTCACCTAGTGCAG is listed with 8660 fluorescence intensity (a.u.)
